From PMC4352707

Protein sequences, listed by entry. Tags and fused reporters are not part of them.
UniProt P78527: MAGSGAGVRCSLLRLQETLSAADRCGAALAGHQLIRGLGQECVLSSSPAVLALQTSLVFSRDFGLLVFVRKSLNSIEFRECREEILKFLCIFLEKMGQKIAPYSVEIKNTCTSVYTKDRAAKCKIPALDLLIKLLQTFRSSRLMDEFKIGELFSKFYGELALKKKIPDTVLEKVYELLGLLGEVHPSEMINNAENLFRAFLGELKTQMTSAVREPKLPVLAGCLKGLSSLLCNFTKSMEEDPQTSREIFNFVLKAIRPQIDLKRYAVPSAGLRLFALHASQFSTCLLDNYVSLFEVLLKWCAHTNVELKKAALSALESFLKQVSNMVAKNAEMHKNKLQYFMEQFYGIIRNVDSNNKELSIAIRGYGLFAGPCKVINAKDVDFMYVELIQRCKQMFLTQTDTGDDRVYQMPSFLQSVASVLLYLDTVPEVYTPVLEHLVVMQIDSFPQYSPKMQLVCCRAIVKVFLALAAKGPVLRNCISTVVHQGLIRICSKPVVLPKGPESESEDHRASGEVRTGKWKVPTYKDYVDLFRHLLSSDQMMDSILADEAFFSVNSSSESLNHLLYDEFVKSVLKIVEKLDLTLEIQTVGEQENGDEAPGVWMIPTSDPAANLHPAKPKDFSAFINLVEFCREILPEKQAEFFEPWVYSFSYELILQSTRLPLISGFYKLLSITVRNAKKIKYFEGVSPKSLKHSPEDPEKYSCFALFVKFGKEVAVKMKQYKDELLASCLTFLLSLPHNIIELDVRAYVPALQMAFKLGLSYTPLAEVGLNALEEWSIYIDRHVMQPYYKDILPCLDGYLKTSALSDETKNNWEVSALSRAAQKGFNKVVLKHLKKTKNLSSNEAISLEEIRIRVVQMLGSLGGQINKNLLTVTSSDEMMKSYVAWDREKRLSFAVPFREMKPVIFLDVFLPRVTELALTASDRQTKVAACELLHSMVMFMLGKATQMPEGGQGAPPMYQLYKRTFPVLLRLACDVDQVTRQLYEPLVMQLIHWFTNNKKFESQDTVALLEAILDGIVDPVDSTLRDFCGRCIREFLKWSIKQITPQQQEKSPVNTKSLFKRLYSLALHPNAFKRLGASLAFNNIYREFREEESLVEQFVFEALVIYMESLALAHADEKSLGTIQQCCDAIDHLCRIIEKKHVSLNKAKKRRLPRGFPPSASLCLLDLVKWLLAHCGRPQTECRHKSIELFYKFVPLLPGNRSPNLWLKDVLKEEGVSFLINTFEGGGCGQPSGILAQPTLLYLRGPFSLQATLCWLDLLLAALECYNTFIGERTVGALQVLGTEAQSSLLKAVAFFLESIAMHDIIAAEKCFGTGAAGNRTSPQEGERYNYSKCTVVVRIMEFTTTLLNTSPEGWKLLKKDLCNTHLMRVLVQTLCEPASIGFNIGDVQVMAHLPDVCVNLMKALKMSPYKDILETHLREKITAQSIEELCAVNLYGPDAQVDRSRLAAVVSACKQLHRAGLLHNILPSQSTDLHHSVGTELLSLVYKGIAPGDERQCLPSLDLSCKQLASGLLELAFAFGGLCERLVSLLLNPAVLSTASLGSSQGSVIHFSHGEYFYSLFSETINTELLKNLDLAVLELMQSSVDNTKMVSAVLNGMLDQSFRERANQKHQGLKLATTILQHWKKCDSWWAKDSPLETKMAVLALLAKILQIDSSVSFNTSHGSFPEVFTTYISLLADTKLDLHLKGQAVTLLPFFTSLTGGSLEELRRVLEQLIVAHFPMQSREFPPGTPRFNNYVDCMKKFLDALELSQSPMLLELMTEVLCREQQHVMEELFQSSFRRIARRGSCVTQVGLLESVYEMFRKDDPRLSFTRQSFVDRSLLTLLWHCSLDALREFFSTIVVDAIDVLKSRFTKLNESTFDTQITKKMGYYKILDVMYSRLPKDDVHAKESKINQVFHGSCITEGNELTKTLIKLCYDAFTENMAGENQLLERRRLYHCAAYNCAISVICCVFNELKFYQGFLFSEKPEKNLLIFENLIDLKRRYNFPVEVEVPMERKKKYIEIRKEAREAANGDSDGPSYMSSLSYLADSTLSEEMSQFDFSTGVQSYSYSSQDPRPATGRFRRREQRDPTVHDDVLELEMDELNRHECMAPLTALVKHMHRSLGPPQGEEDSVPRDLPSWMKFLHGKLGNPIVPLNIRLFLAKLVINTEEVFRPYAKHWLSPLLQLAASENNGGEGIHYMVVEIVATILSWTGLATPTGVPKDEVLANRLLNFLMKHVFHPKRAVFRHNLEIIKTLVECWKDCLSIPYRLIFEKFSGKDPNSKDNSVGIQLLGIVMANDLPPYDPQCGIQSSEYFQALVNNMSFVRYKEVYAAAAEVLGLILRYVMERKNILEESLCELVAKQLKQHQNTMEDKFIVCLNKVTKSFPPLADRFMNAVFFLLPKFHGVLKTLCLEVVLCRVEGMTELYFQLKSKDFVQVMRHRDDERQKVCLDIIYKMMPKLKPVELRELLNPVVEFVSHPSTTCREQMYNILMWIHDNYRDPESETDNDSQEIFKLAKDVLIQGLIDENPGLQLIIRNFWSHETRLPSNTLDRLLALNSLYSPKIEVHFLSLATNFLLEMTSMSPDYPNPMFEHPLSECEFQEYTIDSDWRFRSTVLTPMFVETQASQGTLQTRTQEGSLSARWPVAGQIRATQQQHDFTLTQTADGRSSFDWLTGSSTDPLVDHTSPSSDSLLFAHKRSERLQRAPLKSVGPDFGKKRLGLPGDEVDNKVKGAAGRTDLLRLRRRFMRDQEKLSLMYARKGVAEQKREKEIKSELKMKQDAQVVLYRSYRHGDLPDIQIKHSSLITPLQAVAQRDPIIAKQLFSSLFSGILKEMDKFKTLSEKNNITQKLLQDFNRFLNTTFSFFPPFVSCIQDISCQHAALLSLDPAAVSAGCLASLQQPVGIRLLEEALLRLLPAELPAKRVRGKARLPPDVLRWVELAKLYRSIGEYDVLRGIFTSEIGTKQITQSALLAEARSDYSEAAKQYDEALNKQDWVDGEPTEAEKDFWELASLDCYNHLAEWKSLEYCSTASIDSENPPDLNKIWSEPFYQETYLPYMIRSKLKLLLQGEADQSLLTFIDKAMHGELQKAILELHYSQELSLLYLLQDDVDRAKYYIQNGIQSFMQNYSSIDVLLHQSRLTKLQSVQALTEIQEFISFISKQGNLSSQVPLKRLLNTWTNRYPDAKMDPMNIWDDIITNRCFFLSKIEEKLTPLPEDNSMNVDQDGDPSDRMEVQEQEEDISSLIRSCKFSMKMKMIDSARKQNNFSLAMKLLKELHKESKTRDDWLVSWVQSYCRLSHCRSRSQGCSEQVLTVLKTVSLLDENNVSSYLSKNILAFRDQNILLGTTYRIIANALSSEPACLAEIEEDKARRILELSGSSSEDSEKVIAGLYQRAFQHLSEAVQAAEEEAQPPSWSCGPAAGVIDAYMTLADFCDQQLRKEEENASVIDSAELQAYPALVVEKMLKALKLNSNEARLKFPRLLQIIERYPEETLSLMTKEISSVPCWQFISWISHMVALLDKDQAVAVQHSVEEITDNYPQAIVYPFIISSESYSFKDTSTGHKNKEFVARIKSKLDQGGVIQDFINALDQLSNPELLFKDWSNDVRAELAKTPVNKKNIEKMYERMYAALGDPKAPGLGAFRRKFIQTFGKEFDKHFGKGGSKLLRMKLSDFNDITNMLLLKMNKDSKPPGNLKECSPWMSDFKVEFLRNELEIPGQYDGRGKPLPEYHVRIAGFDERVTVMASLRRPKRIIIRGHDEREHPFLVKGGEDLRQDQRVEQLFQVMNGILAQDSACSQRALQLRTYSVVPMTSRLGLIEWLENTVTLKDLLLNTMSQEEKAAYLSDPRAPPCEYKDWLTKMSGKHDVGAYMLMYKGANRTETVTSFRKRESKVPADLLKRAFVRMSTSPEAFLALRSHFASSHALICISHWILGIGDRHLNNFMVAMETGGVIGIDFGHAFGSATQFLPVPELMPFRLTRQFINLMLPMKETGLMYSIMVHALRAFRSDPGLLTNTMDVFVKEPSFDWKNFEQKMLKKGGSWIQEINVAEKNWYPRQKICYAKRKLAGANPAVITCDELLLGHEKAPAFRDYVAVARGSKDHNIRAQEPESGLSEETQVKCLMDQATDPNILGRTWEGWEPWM
UniProt Q93009: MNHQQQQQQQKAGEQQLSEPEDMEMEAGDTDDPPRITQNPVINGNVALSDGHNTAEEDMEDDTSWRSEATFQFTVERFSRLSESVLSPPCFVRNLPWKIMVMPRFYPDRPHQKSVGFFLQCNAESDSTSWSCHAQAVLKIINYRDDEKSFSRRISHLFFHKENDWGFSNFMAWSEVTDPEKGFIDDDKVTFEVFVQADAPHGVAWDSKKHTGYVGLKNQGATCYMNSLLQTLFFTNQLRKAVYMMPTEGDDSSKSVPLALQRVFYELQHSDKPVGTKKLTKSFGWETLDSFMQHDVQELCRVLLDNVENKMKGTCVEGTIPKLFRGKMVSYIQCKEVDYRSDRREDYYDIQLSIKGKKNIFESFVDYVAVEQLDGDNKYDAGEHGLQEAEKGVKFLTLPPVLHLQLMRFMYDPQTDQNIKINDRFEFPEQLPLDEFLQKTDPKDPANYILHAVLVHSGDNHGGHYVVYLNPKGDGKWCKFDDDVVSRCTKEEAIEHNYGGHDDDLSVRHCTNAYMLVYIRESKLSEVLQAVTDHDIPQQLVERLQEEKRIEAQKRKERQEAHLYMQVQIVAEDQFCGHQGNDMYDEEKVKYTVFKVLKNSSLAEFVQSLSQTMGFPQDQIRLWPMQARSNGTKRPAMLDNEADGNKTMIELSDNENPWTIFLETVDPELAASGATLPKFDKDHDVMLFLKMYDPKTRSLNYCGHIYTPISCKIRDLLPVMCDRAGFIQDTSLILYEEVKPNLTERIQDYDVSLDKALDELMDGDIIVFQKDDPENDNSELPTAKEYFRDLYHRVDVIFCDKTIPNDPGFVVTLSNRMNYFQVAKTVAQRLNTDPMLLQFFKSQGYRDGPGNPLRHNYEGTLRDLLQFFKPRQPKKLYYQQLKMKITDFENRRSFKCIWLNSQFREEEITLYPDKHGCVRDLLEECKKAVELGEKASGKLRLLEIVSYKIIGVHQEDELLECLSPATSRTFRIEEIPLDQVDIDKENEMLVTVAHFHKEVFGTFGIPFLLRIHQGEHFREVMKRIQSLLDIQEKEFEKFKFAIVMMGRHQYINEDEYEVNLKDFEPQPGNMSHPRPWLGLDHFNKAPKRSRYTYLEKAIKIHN

Tests used:
[1] = target: T1, FLAG-Cry1 (pcDNA3-2xFlag-mCRY1) (mouse) (UniProt P97784); assay: affinity purification with mass spectrometry; IP of the FLAG tag from lysates of 293T cells expressing pcDNA3-2xFLAG empty, Cry1 or Cry2, with or without co-expressed Per2; MudPIT LC-MS/MS, triplicate, enriched partners by PatternLab
T1 sequence: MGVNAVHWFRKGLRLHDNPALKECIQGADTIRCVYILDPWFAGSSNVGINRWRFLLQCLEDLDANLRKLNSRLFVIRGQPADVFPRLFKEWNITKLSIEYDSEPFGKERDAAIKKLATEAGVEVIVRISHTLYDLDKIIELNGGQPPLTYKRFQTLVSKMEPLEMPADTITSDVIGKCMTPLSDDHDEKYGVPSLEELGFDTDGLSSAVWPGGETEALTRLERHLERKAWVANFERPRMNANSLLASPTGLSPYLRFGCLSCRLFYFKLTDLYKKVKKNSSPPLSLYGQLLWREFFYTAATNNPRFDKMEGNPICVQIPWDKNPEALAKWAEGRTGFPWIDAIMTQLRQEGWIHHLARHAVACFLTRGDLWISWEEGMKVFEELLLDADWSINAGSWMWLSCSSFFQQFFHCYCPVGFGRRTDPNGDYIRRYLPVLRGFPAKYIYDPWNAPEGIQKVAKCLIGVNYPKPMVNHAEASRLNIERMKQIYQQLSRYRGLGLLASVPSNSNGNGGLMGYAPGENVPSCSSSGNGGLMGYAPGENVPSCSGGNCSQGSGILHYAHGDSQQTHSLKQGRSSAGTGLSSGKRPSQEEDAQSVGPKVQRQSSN

[2] = target: T2, FLAG-Cry2 (pcDNA3-2xFlag-mCRY2) (mouse) (UniProt Q9R194); assay: as above
T2 sequence: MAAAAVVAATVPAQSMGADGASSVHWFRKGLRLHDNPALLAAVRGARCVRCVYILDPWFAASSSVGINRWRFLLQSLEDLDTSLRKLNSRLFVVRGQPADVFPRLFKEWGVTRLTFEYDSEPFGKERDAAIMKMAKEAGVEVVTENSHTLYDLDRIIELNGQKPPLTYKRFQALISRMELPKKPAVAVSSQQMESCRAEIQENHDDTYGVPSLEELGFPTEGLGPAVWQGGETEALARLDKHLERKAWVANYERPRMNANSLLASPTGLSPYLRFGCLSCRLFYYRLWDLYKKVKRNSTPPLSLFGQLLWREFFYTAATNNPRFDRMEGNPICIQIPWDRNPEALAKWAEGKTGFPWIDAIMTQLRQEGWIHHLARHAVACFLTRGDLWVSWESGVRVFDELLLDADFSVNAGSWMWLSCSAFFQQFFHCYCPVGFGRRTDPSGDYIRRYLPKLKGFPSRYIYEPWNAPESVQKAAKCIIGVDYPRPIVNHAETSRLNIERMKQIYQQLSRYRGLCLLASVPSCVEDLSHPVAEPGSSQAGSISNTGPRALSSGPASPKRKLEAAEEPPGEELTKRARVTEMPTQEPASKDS

Substance	binding [1]	binding [2]
DNA-PKcs, endogenous in 293T cells (from UniProt P78527 1-4128) (enzyme)	binds	binds
Herpes virus associated ubiquitin-specific protease (Hausp), endogenous in 293T cells (from UniProt Q93009 1-1102) (enzyme)	binds	–

Results are given in words; binding and its absence hold for the method and conditions named. In cells and extracts the contact can be indirect. A yes stands for co-enrichment or nearness to the bait. Other partners may have been found. Where a sequence is shown, tags or fusion partners need not be part of it.
